# In patent US20090104246A1 (priority 2004, published 2009):
# At least one compound was matched to its structure with a doubt left.
# Tests used:
# Porcine = experiment: Animal studies with rapamycin-coated stents, porcine; format: in vivo; conditions: porcine and rabbit models, nonerodible polymeric stent coating, 35-430 ug/5-18 mm coronary stent, maximal at about 28-30 days
# [1] = system: monocyte chemotactic protein (MCP-1); experiment: Cytokine levels in vascular tissue, rapamycin delivered from a stent; format: in vivo
# [2] = In vitro release kinetics from layered rapamycin, Panzem and polymeric coating; format: physicochemical; conditions: inner layer 45 percent Panzem, outer layer 40 percent rapamycin, no topcoat
# [3] = Liquid formulations of sirolimus with PEG 200, ethanol and water; concentrations by liquid chromatography; format: physicochemical; conditions: for Sirolimus conc.: H2O 25 %, PEG 200 75 %
# Excerpt: In accordance with exemplary embodiments of the present invention, a series of liquid formulations were developed for the local or regional delivery of water insoluble compounds such as sirolimus and its analogs, including CCl-779, ABT-578 and everolimus, through weeping balloons and catheter injection needles. […] These liquid formulations increase the apparent solubility of the pharmacologically active but water insoluble compounds by two to four orders of magnitude as compared to the solubility limits of the compounds in water. These liquid formulations rely on the use of a very small amount of organic solvents such as Ethanol (typically less than two percent) and a larger amount of safe amphiphilic (of or relating to a molecule having a polar, water soluble group attached to a non-polar, water insoluble […]) excipients such as polyethylene glycol (PEG 200, PEG 400) and vitamin E TPGS to enhance the solubility of the compounds. These liquid formulations of highly water insoluble compounds are stable and readily flowable at room temperature. Certain excipients, such as Vitamin E TPGS and BHT may be utilized to enhance the storage stability of sirolimus compounds through their anti-oxidation properties.
# Table 8, shown below, summarizes the concentrations of the excipient, the co-solvents and the drug for four different liquid formulations in accordance with exemplary embodiments of the present invention.
# As set forth above, a liquid formulation comprising 4 mg/ml of sirolimus may be achieved utilizing PEG 200 as the excipient and ethanol and water as the co-solvents. […] The high concentration of sirolimus is necessary to maintain an effective and high local concentration of sirolimus after delivery to the site. The liquid formulations are flowable at room temperature and are compatible with a number of delivery devices. […]
# [4] = Liquid formulations with ethanol, Vitamin E TPGS and water; HPLC assay and visual observation; format: physicochemical
smiles,measurement,setting,value
"CO[C@H]1C[C@@H]2CC[C@@H](C)[C@@](O)(O2)C(=O)C(=O)N2CCCC[C@H]2C(=O)O[C@H]([C@H](C)C[C@@H]2CC[C@@H](O)[C@H](OC)C2)CC(=O)[C@H](C)/C=C(\C)[C@@H](O)[C@@H](OC)C(=O)[C@H](C)C[C@H](C)/C=C/C=C/C=C/1C [Rapamycin, rapamycin]",peak reduction in neointimal hyperplasia,Porcine,fifty to fifty-five
same,reduction of monocyte chemotactic protein (MCP-1) levels in the vascular wall,[1],highly effective in reducing monocyte chemotactic protein (MCP-1) levels
same,in vitro elution from layered EVA/BMA coating,[2],elutes more slowly than Panzem®
same,precipitation on dilution with water,[3]; 4 mg/ml formulation with PEG 200,does not start to precipitate out of solution until diluted five to ten fold with water
same,Sirolimus conc.,"[3]; lower half of Table 8, first column: EtOH 2.0 %",2.0 mg/mL
same,Sirolimus conc.,"[3]; lower half of Table 8, second column: EtOH 2.0 %",4 mg/mL
same,concentration in the final solution (HPLC assay),"[4]; ethanol less than two percent, Vitamin E TPGS, water",15000 µg/mL
same,Observation of final solution,"[4]; ethanol, Vitamin E TPGS and water",clear with a foam on top
